# Values quoted from earlier work, collected in patent publication US8992981B2, “Method for producing microparticles and the microparticles” (M Technique Co., Ltd., priority 2007, dated 2015).
# Settings: heating to 70° C. or more
compound,measurement,value
"Nc1nc2c(ncn2COCCO)c(=O)[nH]1 [aciclovir, 9-[(2-hydroxyethoxy)methyl]guanine]",solubility in water on heating,about 8 w/v %
